The record followed here is PMC9788671.

By UniProt entry, the sequences of proteins in these tests, tags left out.
UniProt Q9NZV8: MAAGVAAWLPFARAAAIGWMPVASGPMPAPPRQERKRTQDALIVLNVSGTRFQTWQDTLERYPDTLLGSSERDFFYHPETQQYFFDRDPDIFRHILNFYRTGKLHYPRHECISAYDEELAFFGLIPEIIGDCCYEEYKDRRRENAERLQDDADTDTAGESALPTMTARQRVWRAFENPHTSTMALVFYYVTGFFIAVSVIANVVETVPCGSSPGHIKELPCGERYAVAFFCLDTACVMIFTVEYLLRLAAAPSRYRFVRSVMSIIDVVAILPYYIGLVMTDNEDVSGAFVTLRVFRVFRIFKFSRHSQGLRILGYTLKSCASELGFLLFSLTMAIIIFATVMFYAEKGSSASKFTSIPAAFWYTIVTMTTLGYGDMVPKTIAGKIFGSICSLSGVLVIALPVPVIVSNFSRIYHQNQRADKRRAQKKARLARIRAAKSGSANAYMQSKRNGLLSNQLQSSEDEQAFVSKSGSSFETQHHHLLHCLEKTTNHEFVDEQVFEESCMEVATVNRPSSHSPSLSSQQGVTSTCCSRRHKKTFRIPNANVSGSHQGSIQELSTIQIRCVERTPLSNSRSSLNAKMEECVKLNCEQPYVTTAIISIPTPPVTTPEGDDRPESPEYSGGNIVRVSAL

B1: Cat (protein, UniProt P04762 1-527)
chain: MADSRDPASDQMKQWKEQRAPQKPDVLTTGGGNPIGDKLNIMTAGPRGPLLVQDVVFTDEMAHFDRERIPERVVHAKGAGAFGYFEVTHDITRYSKAKVFEHIGKRTPIAVRFSTVAGESGSADTVRDPRGFAVKFYTEDGNWDLVGNNTPIFFIRDAMLFPSFIHSQKRNPQTHLKDPDMVWDFWSLCPESLHQVTFLFSDRGIPDGHRHMNGYGSHTFKLVNANGEAVYCKFHYKTDQGIKNLPVEEAGRLAQEDPDYGLRDLFNAIASGNYPSWTFYIQVMTFKEAETFPFNPFDLTKVWPHKDYPLIPVGKLVLNRNPANYFAEVEQMAFDPSNMPPGIEPSPDKMLQGRLFAYPDTHRHRLGPNYLQIPVNCPYRARVANYQRDGPMCMHDNQGGAPNYYPNSFSAPEQQGSALEHHSQCSADVKRFNSANEDNVTQVRTFYTKVLNEEERKRLCENIANHLKDAQLFIQRKAVKNFTDVHPDYGARVQALLDQYNSQKPKNAIHTYVQAGSHIAAKGKANL
B2: Pgk1 (protein, UniProt P16617 1-417)
chain: MSLSNKLTLDKLDVKGKRVVMRVDFNVPMKNNQITNNQRIKAAVPSIKFCLDNGAKSVVLMSHLGRPDGVPMPDKYSLEPVAAELKSLLGKDVLFLKDCVGSEVENACANPAAGTVILLENLRFHVEEEGKGKDASGNKVKAEPAKIDAFRASLSKLGDVYVNDAFGTAHRAHSSMVGVNLPQKAGGFLMKKELNYFAKALESPERPFLAILGGAKVADKIQLINNMLDKVNEMIIGGGMAFTFLKVLNNMEIGTSLYDEEGAKIVKDLMAKAEKNGVKITLPVDFVTADKFDENAKTGQATVASGIPAGWMGLDCGTESSKKYAEAVARAKQIVWNGPVGVFEWEAFARGTKSLMDEVVKATSRGCITIIGGGDTATCCAKWNTEDKVSHVSTGGGASLELLEGKVLPGVDALSNV
B3: Hnrnpm (protein, UniProt Q62826 1-690)
chain: MAAGVEAAAEVAATEPKMEEESGAPCVPSGNGAPVPKGEERPTQNEKRKEKNIKRGGNRFEPYANPTKRYRAFITNIPFDVKWQSLKDLVKEKVGEVTYVELLMDAEGKSRGCAVVEFKMEESMKKAAEVLNKHSLSGRPLKVKEDPDGEHARRAMQKAGRLGSTVFVANLDYKVGWKKLKEVFSMAGVVVRADILEDKDGKSRGIGTVTFEQSIEAVQAISMFNGQLLFDRPMHVKMDERALPKGDFFPPERPQQLPHGLGGIGMGLGPGGQPIDANHLNKGIGMGNLGPAGMGMEGIGFGINKIGGMEGPFGGGMENMGRFGSGMNMGRINEILSNALKRGEIIAKQGGSGAGGSVPGIERMGPGIDRISGAGMERMGAGLGHGMDRVGSEIERMGLVMDRMGSVERMGSGIERMGPLGLDHMASSIERMGQTMERIGSGVERMGAGMGFGLERMAAPIDRVGQTIERMGSGVERMGPAIERMGLSMDRMVPTGMGAGLERMGPVMDRMATGLERMGANNLERMGLERMGANSLERMGLERMGANSLERMGPAMGPALGAGIERMGLAMGGAGGASFDRTIEMERGNFGGSFAGSFGGAGGHAPGVARKACQIFVRNLPFDFTWKMLKDKFNECGHVLYADIKMENGKSKGCGVVKFESPEVAERACRMMNGMKLSGREIDVRIDRNA
B4: Mest (protein, UniProt Q6P5P5 1-335)
chain: MVRRDRLRRMREWWVQVGLLAVPLLAAYLHIPPPQLSPALHSWKTSGKFFTYKGLRIFYQDSVGVVGSPEIVVLLHGFPTSSYDWYKIWEGLTLRFHRVIALDFLGFGFSDKPRPHQYSIFEQASIVESLLRHLGLQNRRINLLSHDYGDIVAQELLYRYKQNRSGRLTIKSLCLSNGGIFPETHRPLLLQKLLKDGGVLSPILTRLMNFFVFSRGLTPVFGPYTRPTESELWDMWAGIRNNDGNLVIDSLLQYINQRKKFRRRWVGALASVTIPIHFIYGPLDPINPYPEFLELYRKTLPRSTVSILDDHISHYPQLEDPMGFLNAYMGFINSF
B5: Fabp4 (protein, UniProt P70623 1-132)
chain: MCDAFVGTWKLVSSENFDDYMKEVGVGFATRKVAGMAKPNLIISVEGDLVVIRSESTFKNTEISFKLGVEFDEITPDDRKVKSIITLDGGVLVHVQKWDGKSTTIKKRRDGDKLVVECVMKGVTSTRVYERA
B6: Zwint (protein, UniProt Q8VIL3 1-266)
chain: MADAEKNAVAEKNAVAEENAVAEENAVADKNATKEVLAEAASVLEPVGLPEEAELPAKIMEEFMRNSRKKDKLLCSQLQVVNFLQTFLAQEDNTDQNPDALASEDTSRQKATETKEQWKELKATYMDHVDVIKCALSEALPQVKEAHRKYTELQKAFEQLEAKKRVLEEKLQLAQKQWVLQQKRLQNLTKISAEVKRRRKRALEKLDGSHQELETLKQQAGQEQEKLQRNQSYLQLLCSLQNKLVISESKADDKDVKGPALPPKSP
B7: Slc4a1 (protein, UniProt P23562 1-927)
chain: MGDMQDHEKVLEIPDRDSEEELEHVIEQIAYRDLDIPVTEMQESEALPTEQTATDYIPTSTSTSHPSSSQVYVELQELMMDQRNQELQWVEAAHWIGLEENLREDGVWGRPHLSYLTFWSLLELQKVFSKGTFLLDLAETSLAGVANKLLDSFIYEDQIRPQDRDELLRALLLKRSHAEDLKDLEGVKPAVLTRSGAPSEPLLPHQPSLETKLYCAQAEGGSEEPSPSGILKIPPNSETTLVLVGRASFLVKPVLGFVRLKEAVPLEDLVLPEPVSFLLVLLGPEAPHIDYTQLGRAAATLMTERVFRVTASLAQSRGELLSSLDSFLDCSLVLPPTEAPSEKALLNLVPVQKELLRKRYLPRPAKPDPNLYEALDGGKEGPGDEDDPLRRTGRIFGGLIRDIRRRYPYYLSDITDALSPQVLAAVIFIYFAALSPAVTFGGLLGEKTRNLMGVSELLISTAVQGILFALLGAQPLLVLGFSGPLLVFEEAFYSFCESNNLEYIVGRAWIGFWLILLVVLVVAFEGSFLVQYISRYTQEIFSFLISLIFIYETFSKLIKIFQDYPLQESYAPVVMKPKPQGPVPNTALLSLVLMVGTFLLAMMLRKFKNSTYFPGKLRRVIGDFGVPISILIMVLVDTFIKNTYTQKLSVPDGLKVSNSSARGWVIHPLGLYNHFPKWMMFASVLPALLVFILIFLESQITTLIVSKPERKMIKGSGFHLDLLLVVGMGGVAALFGMPWLSATTVRSVTHANALTVMGKASGPGAAAQIQEVKEQRISGLLVSVLVGLSILMEPILSRIPLAVLFGIFLYMGITSLSGIQLFDRILLLFKPPKYHPDVPFVKRVKTWRMHLFTGIQIICLAVLWVVKSTPASLALPFVLILTVPLRRLLLPLIFRELELQCLDGDDAKVTFDEAEGLDEYDEVPMPV
B8: Hnrnph1 (protein, UniProt Q8VHV7 1-449)
chain: MMLGAEGGEGFVVKVRGLPWSCSADEVQRFFSDCKIQNGAQGIRFIYTREGRPSGEAFVELESEDEVKLALKKDRETMGHRYVEVFKSNNVEMDWVLKHTGPNSPDTANDGFVRLRGLPFGCSEEEIVQFFSGLEIVPNGITLPVDFQGRSTGEAFVQFASQEIAEKALKKHKERIGHRYIEIFKSSRAEVRTHYDPPRKLMAMQRPGPYDRPGAGRGYNSIGRGAGFERMRRGAYGGGYGGYDDYNGYNDGYGFGSDRFGRDLNYCFSGMSDHRYGDGGSTFQSTTGHCVHMRGLPYRATENDIYNFFSPLNPVRVHIETGPDGRVTGEADVEFATHEDAVAAMSKDKANMQHRYVELFLNSTAGASGGAYEHRYVELFLNSTAGASGGAYGSQMMGGMGLSNQSSYGGPASQQLSGGYGGGYGGQSSMSGYDQVLQENSSDFQSNIA

These are yes or no findings as the source states them, for the method shown. In cells and extracts the contact can be indirect. A yes stands for co-enrichment or nearness to the bait. Other partners may have been found.

In the test the target is TAP-Kv4.2 (human) (UniProt Q9NZV8). Description: affinity purification with mass spectrometry; TAP-Kv4.2 expressed by lentivirus in rat hippocampal neurons, harvested at DIV14; weak lysis buffer of the kit (0.1% NP-40); streptavidin resin, then calmodulin resin; gel cut into high and low molecular weight fragments; no MS of the control sample.
Regarding B1, the binding entry is reported as “binds”.

For B2, the binding result is recorded as “binds”. For B3, the binding result is on record as “binds”. Consider B4, for which the binding entry is reported as “binds”. In the case of B5 it was “binds”; in that of B6, “binds”; in that of B7, “binds”.

B8: the binding entry is given as “binds”.
